Article PMC2911597, “Three-Dimensional Structure of TspO by Electron Cryomicroscopy of Helical Crystals” (Structure(London, England:1993), 2010)
Results are given in words; binding and its absence hold for the method and conditions named. Some entries that bind do so weakly or less than the wild type. Values belong to the binder of their own block, whether it stands above or below them.

Tests used:
[1] = target: EmrE (UniProt P23895); assay: native gel or EMSA; blue native PAGE as a1, sample incubated with 1% SDS for 10 min before the loading dye; both purified
[2] = target: EmrE (UniProt P23895); assay: native gel or EMSA; blue native PAGE, 4%-16% gradient Novex Bis-Tris gels, purified protein in DDM, 5-10 ug protein/lane, 4°C; both purified
[3] = target: tryptophan-rich sensory protein (TspO) from Rhodobacter sphaeroides (Rhodobacter sphaeroides) (UniProt Q9RFC8); assay: native gel or EMSA; blue native PAGE as a1, sample incubated with 1% SDS for 10 min before the loading dye; both purified

binding [1]: no binding (condition: with 1% SDS)
binding [2]: binds
B1: EmrE (protein, UniProt P23895 1-110)
chain: MNPYIYLGGAILAEVIGTTLMKFSEGFTRLWPSVGTIICYCASFWLLAQTLAYIPTGIAYAIWSGVGIVLISLLSWGFFGQRLDLPAIIGMMLICAGVLIINLLSRSTPH

binding [3]: no binding (condition: with 1% SDS)
B2: tryptophan-rich sensory protein (TspO) from Rhodobacter sphaeroides (natural protein, UniProt Q9RFC8 1-158, looked up)
chain: MNMDWALFLTFLAACGAPATTGALLKPDEWYDNLNKPWWNPPRWVFPLAWTSLYFLMSLAAMRVAQLEGSGQALAFYAAQLAFNTLWTPVFFGMKRMATALAVVMVMWLFVAATMWAFFQLDTWAGVLFVPYLIWATAATGLNFEAMRLNWNRPEARA
notes: also called rsTspO; TspO-His6; source: E. coli BL21(DE3), pET29, purified in DDM (NiNTA-agarose, gel filtration)
